Experimental data taken from article PMC11026443.
No constants are given. Whether binding was seen depends on the method and setting. In cells and extracts the contact can be indirect. Some entries that bind do so weakly or less than the wild type.

The chains behind the UniProt entries cited, without tags or fusion partners.
UniProt Q5U3H2: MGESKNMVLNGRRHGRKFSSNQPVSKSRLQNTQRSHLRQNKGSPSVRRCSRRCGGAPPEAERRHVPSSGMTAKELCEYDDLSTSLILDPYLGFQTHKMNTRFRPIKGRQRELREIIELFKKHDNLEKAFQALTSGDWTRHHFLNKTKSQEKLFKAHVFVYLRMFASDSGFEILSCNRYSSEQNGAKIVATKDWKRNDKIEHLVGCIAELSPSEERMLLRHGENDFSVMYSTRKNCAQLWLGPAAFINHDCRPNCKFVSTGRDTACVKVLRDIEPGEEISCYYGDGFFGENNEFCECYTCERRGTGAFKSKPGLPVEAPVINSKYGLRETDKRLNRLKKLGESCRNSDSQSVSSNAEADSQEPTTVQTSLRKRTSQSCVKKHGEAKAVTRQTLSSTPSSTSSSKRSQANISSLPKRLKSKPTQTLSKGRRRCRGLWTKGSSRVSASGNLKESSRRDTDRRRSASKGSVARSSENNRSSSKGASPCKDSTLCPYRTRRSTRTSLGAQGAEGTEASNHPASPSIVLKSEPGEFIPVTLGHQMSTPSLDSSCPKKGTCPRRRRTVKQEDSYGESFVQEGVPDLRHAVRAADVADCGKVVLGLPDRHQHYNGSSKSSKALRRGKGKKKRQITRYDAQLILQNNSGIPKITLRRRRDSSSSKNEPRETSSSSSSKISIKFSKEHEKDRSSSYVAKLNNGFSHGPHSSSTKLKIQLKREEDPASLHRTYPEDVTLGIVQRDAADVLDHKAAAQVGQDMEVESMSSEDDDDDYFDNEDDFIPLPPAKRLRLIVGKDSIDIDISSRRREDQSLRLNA

T1: mCherry-hRB1 (human) (UniProt P06400)
T1 sequence: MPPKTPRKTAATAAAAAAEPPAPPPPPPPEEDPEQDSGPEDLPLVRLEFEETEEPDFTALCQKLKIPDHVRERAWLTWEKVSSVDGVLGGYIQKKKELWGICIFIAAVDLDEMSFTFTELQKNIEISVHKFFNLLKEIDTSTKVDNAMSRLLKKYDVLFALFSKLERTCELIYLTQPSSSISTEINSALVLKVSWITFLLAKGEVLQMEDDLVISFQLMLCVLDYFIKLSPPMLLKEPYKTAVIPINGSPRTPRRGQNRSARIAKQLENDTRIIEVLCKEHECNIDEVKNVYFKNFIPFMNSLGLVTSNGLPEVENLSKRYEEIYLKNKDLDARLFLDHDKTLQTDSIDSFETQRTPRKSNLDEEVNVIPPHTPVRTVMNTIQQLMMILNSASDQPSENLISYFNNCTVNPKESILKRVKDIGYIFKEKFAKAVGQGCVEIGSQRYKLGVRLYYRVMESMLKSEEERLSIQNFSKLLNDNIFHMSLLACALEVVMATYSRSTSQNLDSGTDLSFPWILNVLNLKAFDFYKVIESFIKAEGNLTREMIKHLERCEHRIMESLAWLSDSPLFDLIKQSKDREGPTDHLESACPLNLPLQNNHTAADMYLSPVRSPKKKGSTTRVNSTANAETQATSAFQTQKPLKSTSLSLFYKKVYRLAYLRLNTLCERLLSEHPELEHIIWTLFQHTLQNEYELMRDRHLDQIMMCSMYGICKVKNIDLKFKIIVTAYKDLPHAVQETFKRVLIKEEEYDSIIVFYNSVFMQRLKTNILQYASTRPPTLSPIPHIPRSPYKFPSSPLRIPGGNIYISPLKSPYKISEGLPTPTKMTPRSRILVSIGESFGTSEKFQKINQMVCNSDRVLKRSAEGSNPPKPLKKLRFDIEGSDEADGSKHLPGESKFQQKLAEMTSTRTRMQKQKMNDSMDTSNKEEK


Key:
mCherry-hRB1 (human) = target: T1, mCherry-hRB1 (human); test: co-IP; lysate of 293T cells transfected for 48 h with GFP-Kmt5b and mCherry-hRB1, mCherry-hRB1^R621S or mCherry-hRB1^L819V; IP with anti-GFP overnight at 4 °C and protein G Dynabeads, reciprocal IP with anti-mCherry; control IgG; western blot
[1] = target: GFP-Kmt5b (expressed in 293T cells) (zebrafish) (UniProt Q5U3H2); test: as above

binding (mCherry-hRB1 (human))	binding [1]	Molecule
binds	–	GFP-Kmt5b (expressed in 293T cells) (from UniProt Q5U3H2 1-808)
–	binds	mCherry-hRB1 (protein, UniProt P06400 1-928) MPPKTPRKTAATAAAAAAEPPAPPPPPPPEEDPEQDSGPEDLPLVRLEFEETEEPDFTALCQKLKIPDHVRERAWLTWEKVSSVDGVLGGYIQKKKELWGICIFIAAVDLDEMSFTFTELQKNIEISVHKFFNLLKEIDTSTKVDNAMSRLLKKYDVLFALFSKLERTCELIYLTQPSSSISTEINSALVLKVSWITFLLAKGEVLQMEDDLVISFQLMLCVLDYFIKLSPPMLLKEPYKTAVIPINGSPRTPRRGQNRSARIAKQLENDTRIIEVLCKEHECNIDEVKNVYFKNFIPFMNSLGLVTSNGLPEVENLSKRYEEIYLKNKDLDARLFLDHDKTLQTDSIDSFETQRTPRKSNLDEEVNVIPPHTPVRTVMNTIQQLMMILNSASDQPSENLISYFNNCTVNPKESILKRVKDIGYIFKEKFAKAVGQGCVEIGSQRYKLGVRLYYRVMESMLKSEEERLSIQNFSKLLNDNIFHMSLLACALEVVMATYSRSTSQNLDSGTDLSFPWILNVLNLKAFDFYKVIESFIKAEGNLTREMIKHLERCEHRIMESLAWLSDSPLFDLIKQSKDREGPTDHLESACPLNLPLQNNHTAADMYLSPVRSPKKKGSTTRVNSTANAETQATSAFQTQKPLKSTSLSLFYKKVYRLAYLRLNTLCERLLSEHPELEHIIWTLFQHTLQNEYELMRDRHLDQIMMCSMYGICKVKNIDLKFKIIVTAYKDLPHAVQETFKRVLIKEEEYDSIIVFYNSVFMQRLKTNILQYASTRPPTLSPIPHIPRSPYKFPSSPLRIPGGNIYISPLKSPYKISEGLPTPTKMTPRSRILVSIGESFGTSEKFQKINQMVCNSDRVLKRSAEGSNPPKPLKKLRFDIEGSDEADGSKHLPGESKFQQKLAEMTSTRTRMQKQKMNDSMDTSNKEEK
–	no binding	mCherry-hRB1^R621S (protein, UniProt P06400 1-928) MPPKTPRKTAATAAAAAAEPPAPPPPPPPEEDPEQDSGPEDLPLVRLEFEETEEPDFTALCQKLKIPDHVRERAWLTWEKVSSVDGVLGGYIQKKKELWGICIFIAAVDLDEMSFTFTELQKNIEISVHKFFNLLKEIDTSTKVDNAMSRLLKKYDVLFALFSKLERTCELIYLTQPSSSISTEINSALVLKVSWITFLLAKGEVLQMEDDLVISFQLMLCVLDYFIKLSPPMLLKEPYKTAVIPINGSPRTPRRGQNRSARIAKQLENDTRIIEVLCKEHECNIDEVKNVYFKNFIPFMNSLGLVTSNGLPEVENLSKRYEEIYLKNKDLDARLFLDHDKTLQTDSIDSFETQRTPRKSNLDEEVNVIPPHTPVRTVMNTIQQLMMILNSASDQPSENLISYFNNCTVNPKESILKRVKDIGYIFKEKFAKAVGQGCVEIGSQRYKLGVRLYYRVMESMLKSEEERLSIQNFSKLLNDNIFHMSLLACALEVVMATYSRSTSQNLDSGTDLSFPWILNVLNLKAFDFYKVIESFIKAEGNLTREMIKHLERCEHRIMESLAWLSDSPLFDLIKQSKDREGPTDHLESACPLNLPLQNNHTAADMYLSPVRSPKKKGSTTSVNSTANAETQATSAFQTQKPLKSTSLSLFYKKVYRLAYLRLNTLCERLLSEHPELEHIIWTLFQHTLQNEYELMRDRHLDQIMMCSMYGICKVKNIDLKFKIIVTAYKDLPHAVQETFKRVLIKEEEYDSIIVFYNSVFMQRLKTNILQYASTRPPTLSPIPHIPRSPYKFPSSPLRIPGGNIYISPLKSPYKISEGLPTPTKMTPRSRILVSIGESFGTSEKFQKINQMVCNSDRVLKRSAEGSNPPKPLKKLRFDIEGSDEADGSKHLPGESKFQQKLAEMTSTRTRMQKQKMNDSMDTSNKEEK
–	no binding	mCherry-hRB1^L819V (protein, UniProt P06400 1-928) MPPKTPRKTAATAAAAAAEPPAPPPPPPPEEDPEQDSGPEDLPLVRLEFEETEEPDFTALCQKLKIPDHVRERAWLTWEKVSSVDGVLGGYIQKKKELWGICIFIAAVDLDEMSFTFTELQKNIEISVHKFFNLLKEIDTSTKVDNAMSRLLKKYDVLFALFSKLERTCELIYLTQPSSSISTEINSALVLKVSWITFLLAKGEVLQMEDDLVISFQLMLCVLDYFIKLSPPMLLKEPYKTAVIPINGSPRTPRRGQNRSARIAKQLENDTRIIEVLCKEHECNIDEVKNVYFKNFIPFMNSLGLVTSNGLPEVENLSKRYEEIYLKNKDLDARLFLDHDKTLQTDSIDSFETQRTPRKSNLDEEVNVIPPHTPVRTVMNTIQQLMMILNSASDQPSENLISYFNNCTVNPKESILKRVKDIGYIFKEKFAKAVGQGCVEIGSQRYKLGVRLYYRVMESMLKSEEERLSIQNFSKLLNDNIFHMSLLACALEVVMATYSRSTSQNLDSGTDLSFPWILNVLNLKAFDFYKVIESFIKAEGNLTREMIKHLERCEHRIMESLAWLSDSPLFDLIKQSKDREGPTDHLESACPLNLPLQNNHTAADMYLSPVRSPKKKGSTTRVNSTANAETQATSAFQTQKPLKSTSLSLFYKKVYRLAYLRLNTLCERLLSEHPELEHIIWTLFQHTLQNEYELMRDRHLDQIMMCSMYGICKVKNIDLKFKIIVTAYKDLPHAVQETFKRVLIKEEEYDSIIVFYNSVFMQRLKTNILQYASTRPPTLSPIPHIPRSPYKFPSSPLRIPGGNIYISPLKSPYKISEGVPTPTKMTPRSRILVSIGESFGTSEKFQKINQMVCNSDRVLKRSAEGSNPPKPLKKLRFDIEGSDEADGSKHLPGESKFQQKLAEMTSTRTRMQKQKMNDSMDTSNKEEK
